{
  "source": "the supplement of paper PMC8728848",
  "binders": {"B1": {"name": "LlpB (Pseudomonas fluorescens) (protein)", "chain": "MGSSHHHHHHSSGLVPRGSHMASSGFRIILFNSANNGTAILPPRNCLVAGQYLESPSKRYKLILEADGNLRLYDNGVPIWVADSSVPYTYVDNRPNTNLVTCFYMQGSAFLVDRVGSRTWATIGDWIDGAADRAYLQVQDDGNVVVVDGVPRWARFGFTPAALPNRGVFYPDHGTGPLPSFPVWSWTF"}},
  "assay_in_all_cases": "glycan array binding signal (z-score within array); higher = stronger binding",
  "details_in_all_cases": "glycan notation: IUPAC condensed, linker removed",
  "key": {"[1]": {"molecular_target": "Gal(a1-3)Gal(b1-4)GlcNAc(b1-2)Man", "in_short": "(§1)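 Glycan array binding is given as a within-array Z-score, which can be read as non-binding when negative. The arrays, 3228 of them, came from the Consortium for Functional Glycomics database and were retained only where the protein sequence was available. Z-scores were averaged across arrays of the same protein sequence at different concentrations or buffers and across linkers.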"}, "[2]": {"molecular_target": "Gal(a1-3)Gal(b1-4)GlcNAc(b1-2)Man(a1-3)[Gal(a1-3)Gal(b1-4)GlcNAc(b1-2)Man(a1-6)]Man(b1-4)GlcNAc(b1-4)GlcNAc", "in_short": "as §1"}, "[3]": {"molecular_target": "Gal(a1-3)Gal(b1-4)GlcNAc(b1-3)GalNAc", "in_short": "as §1"}, "[4]": {"molecular_target": "Gal(a1-3)Gal(b1-4)GlcNAc(b1-6)GalNAc", "in_short": "as §1"}, "[5]": {"molecular_target": "Gal(a1-3)Gal(b1-4)[Fuc(a1-3)]GlcNAc", "in_short": "as §1"}, "[6]": {"molecular_target": "Gal(a1-3)Gal(b1-4)[Fuc(a1-3)]GlcNAc(b1-2)Man(a1-3)[Gal(a1-3)Gal(b1-4)[Fuc(a1-3)]GlcNAc(b1-2)Man(a1-6)]Man(b1-4)GlcNAc(b1-4)GlcNAc", "in_short": "as §1"}, "[7]": {"molecular_target": "Gal(a1-3)GalNAc", "in_short": "as §1"}, "[8]": {"molecular_target": "Gal(a1-3)[Gal(a1-4)]Gal(b1-4)GlcNAc", "in_short": "as §1"}, "[9]": {"molecular_target": "Gal(a1-4)Gal(b1-3)GlcNAc(b1-2)Man(a1-3)[Gal(a1-4)Gal(b1-3)GlcNAc(b1-2)Man(a1-6)]Man(b1-4)GlcNAc(b1-4)GlcNAc", "in_short": "as §1"}, "[10]": {"molecular_target": "Gal(a1-4)Gal(b1-4)Glc", "in_short": "as §1"}, "[11]": {"molecular_target": "Gal(a1-4)Gal(b1-4)GlcNAc", "in_short": "as §1"}, "[12]": {"molecular_target": "Gal(a1-4)Gal(b1-4)GlcNAc(b1-2)Man(a1-3)[Gal(a1-4)Gal(b1-4)GlcNAc(b1-2)Man(a1-6)]Man(b1-4)GlcNAc(b1-4)GlcNAc", "in_short": "as §1"}, "[13]": {"molecular_target": "Gal(a1-4)Gal(b1-4)GlcNAc(b1-3)Gal(b1-4)Glc", "in_short": "as §1"}, "[14]": {"molecular_target": "Gal(a1-4)GlcNAc", "in_short": "as §1"}, "[15]": {"molecular_target": "Gal(a1-6)Glc", "in_short": "as §1"}, "[16]": {"molecular_target": "Gal(b1-2)Gal", "in_short": "as §1"}, "[17]": {"molecular_target": "Gal(b1-3)Gal", "in_short": "as §1"}, "[18]": {"molecular_target": "Gal(b1-3)Gal(b1-4)GlcNAc", "in_short": "as §1"}, "[19]": {"molecular_target": "Gal(b1-3)GalNAc", "in_short": "as §1"}, "[20]": {"molecular_target": "Gal(b1-3)GalNAc(a1-3)[Fuc(a1-2)]Gal(b1-4)Glc", "in_short": "as §1"}, "[21]": {"molecular_target": "Gal(b1-3)GalNAc(a1-3)[Fuc(a1-2)]Gal(b1-4)GlcNAc", "in_short": "as §1"}, "[22]": {"molecular_target": "Gal(b1-3)GalNAc(b1-3)Gal", "in_short": "as §1"}, "[23]": {"molecular_target": "Gal(b1-3)GalNAc(b1-3)Gal(a1-4)Gal(b1-4)Glc", "in_short": "as §1"}, "[24]": {"molecular_target": "Gal(b1-3)GalNAc(b1-4)Gal(b1-4)Glc", "in_short": "as §1"}, "[25]": {"molecular_target": "Gal(b1-3)GalNAc(b1-4)[Neu5Ac(a2-3)]Gal(b1-4)Glc", "in_short": "as §1"}, "[26]": {"molecular_target": "Gal(b1-3)GlcNAc", "in_short": "as §1"}, "[27]": {"molecular_target": "Gal(b1-3)GlcNAc(a1-3)Gal(b1-4)GlcNAc", "in_short": "as §1"}, "[28]": {"molecular_target": "Gal(b1-3)GlcNAc(a1-6)Gal(b1-4)GlcNAc", "in_short": "as §1"}, "[29]": {"molecular_target": "Gal(b1-3)GlcNAc(b1-2)Man", "in_short": "as §1"}, "[30]": {"molecular_target": "Gal(b1-3)GlcNAc(b1-2)Man(a1-3)[Gal(b1-3)GlcNAc(b1-2)Man(a1-6)]Man(b1-4)GlcNAc(b1-4)GlcNAc", "in_short": "as §1"}, "[31]": {"molecular_target": "Gal(b1-3)GlcNAc(b1-2)Man(a1-3)[Gal(b1-3)GlcNAc(b1-2)Man(a1-6)]Man(b1-4)GlcNAc(b1-4)[Fuc(a1-6)]GlcNAc", "in_short": "as §1"}, "[32]": {"molecular_target": "Gal(b1-3)GlcNAc(b1-2)Man(a1-3)[GlcNAc(b1-4)][Gal(b1-3)GlcNAc(b1-2)Man(a1-6)]Man(b1-4)GlcNAc(b1-4)GlcNAc", "in_short": "as §1"}, "[33]": {"molecular_target": "Gal(b1-3)GlcNAc(b1-2)[Gal(b1-3)GlcNAc(b1-6)]Man(a1-6)[Gal(b1-3)GlcNAc(b1-2)Man(a1-3)]Man(b1-4)GlcNAc(b1-4)GlcNAc", "in_short": "as §1"}, "[34]": {"molecular_target": "Gal(b1-3)GlcNAc(b1-3)Gal(b1-3)GlcNAc", "in_short": "as §1"}, "[35]": {"molecular_target": "Gal(b1-3)GlcNAc(b1-3)Gal(b1-4)Glc", "in_short": "as §1"}, "[36]": {"molecular_target": "Gal(b1-3)GlcNAc(b1-3)Gal(b1-4)GlcNAc", "in_short": "as §1"}, "[37]": {"molecular_target": "Gal(b1-3)GlcNAc(b1-3)Gal(b1-4)GlcNAc(b1-2)Man(a1-3)[Gal(b1-3)GlcNAc(b1-3)Gal(b1-4)GlcNAc(b1-2)Man(a1-6)]Man(b1-4)GlcNAc(b1-4)GlcNAc", "in_short": "as §1"}, "[38]": {"molecular_target": "Gal(b1-3)GlcNAc(b1-3)Gal(b1-4)GlcNAc(b1-2)[Gal(b1-3)GlcNAc(b1-3)Gal(b1-4)GlcNAc(b1-6)]Man(a1-6)[Gal(b1-3)GlcNAc(b1-3)Gal(b1-4)GlcNAc(b1-2)Man(a1-3)]Man(b1-4)GlcNAc(b1-4)[Fuc(a1-6)]GlcNAc", "in_short": "as §1"}, "[39]": {"molecular_target": "Gal(b1-3)GlcNAc(b1-3)Gal(b1-4)GlcNAc(b1-3)Gal(b1-4)GlcNAc(b1-2)[Gal(b1-3)GlcNAc(b1-3)Gal(b1-4)GlcNAc(b1-3)Gal(b1-4)GlcNAc(b1-6)]Man(a1-6)[Gal(b1-3)GlcNAc(b1-3)Gal(b1-4)GlcNAc(b1-3)Gal(b1-4)GlcNAc(b1-2)Man(a1-3)]Man(b1-4)GlcNAc(b1-4)[Fuc(a1-6)]GlcNAc", "in_short": "as §1"}, "[40]": {"molecular_target": "Gal(b1-3)GlcNAc(b1-3)Gal(b1-4)GlcNAc(b1-6)[Gal(b1-3)GlcNAc(b1-3)]Gal(b1-4)Glc", "in_short": "as §1"}, "[41]": {"molecular_target": "Gal(b1-3)GlcNAc(b1-3)Gal(b1-4)[Fuc(a1-3)]GlcNAc", "in_short": "as §1"}, "[42]": {"molecular_target": "Gal(b1-3)GlcNAc(b1-3)Gal(b1-4)[Fuc(a1-3)]GlcNAc(b1-6)[Gal(b1-3)GlcNAc(b1-3)]Gal(b1-4)Glc", "in_short": "as §1"}, "[43]": {"molecular_target": "Gal(b1-3)GlcNAc(b1-3)GalNAc", "in_short": "as §1"}, "[44]": {"molecular_target": "Gal(b1-3)GlcNAc(b1-6)Gal(b1-4)GlcNAc", "in_short": "as §1"}, "[45]": {"molecular_target": "Gal(b1-3)GlcNAc(b1-6)GalNAc", "in_short": "as §1"}},
  "note": "The other results are listed elsewhere or left out.",
  "data": [
    {"binder": "B1", "values": [
      {"measurement": "glycan array binding signal (z-score)", "setting": "[1]", "result": -1.36},
      {"measurement": "glycan array binding signal (z-score)", "setting": "[2]", "result": 0.058},
      {"measurement": "glycan array binding signal (z-score)", "setting": "[3]", "result": -0.222},
      {"measurement": "glycan array binding signal (z-score)", "setting": "[4]", "result": 0.921},
      {"measurement": "glycan array binding signal (z-score)", "setting": "[5]", "result": -0.624},
      {"measurement": "glycan array binding signal (z-score)", "setting": "[6]", "result": 0.849},
      {"measurement": "glycan array binding signal (z-score)", "setting": "[7]", "result": -0.011},
      {"measurement": "glycan array binding signal (z-score)", "setting": "[8]", "result": 1.1},
      {"measurement": "glycan array binding signal (z-score)", "setting": "[9]", "result": 0.188},
      {"measurement": "glycan array binding signal (z-score)", "setting": "[10]", "result": -0.983},
      {"measurement": "glycan array binding signal (z-score)", "setting": "[11]", "result": 1.03},
      {"measurement": "glycan array binding signal (z-score)", "setting": "[12]", "result": -0.01},
      {"measurement": "glycan array binding signal (z-score)", "setting": "[13]", "result": -1.38},
      {"measurement": "glycan array binding signal (z-score)", "setting": "[14]", "result": -0.064},
      {"measurement": "glycan array binding signal (z-score)", "setting": "[15]", "result": -1.01},
      {"measurement": "glycan array binding signal (z-score)", "setting": "[16]", "result": -0.578},
      {"measurement": "glycan array binding signal (z-score)", "setting": "[17]", "result": -0.357},
      {"measurement": "glycan array binding signal (z-score)", "setting": "[18]", "result": -0.271},
      {"measurement": "glycan array binding signal (z-score)", "setting": "[19]", "result": 0.211},
      {"measurement": "glycan array binding signal (z-score)", "setting": "[20]", "result": 0.486},
      {"measurement": "glycan array binding signal (z-score)", "setting": "[21]", "result": -0.127},
      {"measurement": "glycan array binding signal (z-score)", "setting": "[22]", "result": -0.528},
      {"measurement": "glycan array binding signal (z-score)", "setting": "[23]", "result": -0.025},
      {"measurement": "glycan array binding signal (z-score)", "setting": "[24]", "result": 0.811},
      {"measurement": "glycan array binding signal (z-score)", "setting": "[25]", "result": -0.792},
      {"measurement": "glycan array binding signal (z-score)", "setting": "[26]", "result": 0.344},
      {"measurement": "glycan array binding signal (z-score)", "setting": "[27]", "result": 0.12},
      {"measurement": "glycan array binding signal (z-score)", "setting": "[28]", "result": -0.47},
      {"measurement": "glycan array binding signal (z-score)", "setting": "[29]", "result": -0.419},
      {"measurement": "glycan array binding signal (z-score)", "setting": "[30]", "result": -0.522},
      {"measurement": "glycan array binding signal (z-score)", "setting": "[31]", "result": -0.303},
      {"measurement": "glycan array binding signal (z-score)", "setting": "[32]", "result": 0.841},
      {"measurement": "glycan array binding signal (z-score)", "setting": "[33]", "result": 1.49},
      {"measurement": "glycan array binding signal (z-score)", "setting": "[34]", "result": -1.37},
      {"measurement": "glycan array binding signal (z-score)", "setting": "[35]", "result": -0.526},
      {"measurement": "glycan array binding signal (z-score)", "setting": "[36]", "result": 0.129},
      {"measurement": "glycan array binding signal (z-score)", "setting": "[37]", "result": 0.167},
      {"measurement": "glycan array binding signal (z-score)", "setting": "[38]", "result": 0.879},
      {"measurement": "glycan array binding signal (z-score)", "setting": "[39]", "result": 0.21},
      {"measurement": "glycan array binding signal (z-score)", "setting": "[40]", "result": 0.883},
      {"measurement": "glycan array binding signal (z-score)", "setting": "[41]", "result": 0.523},
      {"measurement": "glycan array binding signal (z-score)", "setting": "[42]", "result": 1.41},
      {"measurement": "glycan array binding signal (z-score)", "setting": "[43]", "result": -0.353},
      {"measurement": "glycan array binding signal (z-score)", "setting": "[44]", "result": -1.45},
      {"measurement": "glycan array binding signal (z-score)", "setting": "[45]", "result": 0.142}
    ]}
  ]
}
